{"source": "PubChem BioAssay AID1259327, Drosophila RNAi Screening Center – 2017", "test": "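Knock-downs altering cellular ATP with no metal added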", "cells": "Drosophila S2R+ cells", "reagent": "long dsRNA against Drosophila genes", "time to read-out": "5 days (water added on day 4, read one day later)", "treatment": "water added as vehicle, no metal, one day before read-out", "read-out": "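Total ATP measured by luciferase light, scaled to plate mean, duplicates averaged, then z-scored across plates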", "direction": "ATP z-score: higher = more total ATP than typical wells; ATP luminescence: higher = more total ATP", "active means": "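Called active when the ATP z-score exceeds 1.5 or falls below -1.5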", "meaning of the calls": "active = hit: ATP up or down; inactive = no clear ATP change", "note": "Here is an unselected part of about 3,100 reagents tested. 378 of all reagents (12%) were called active. 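Hits include both directions; z-score sign shows ATP rise or fall; raw luminescence values are not plate-normalised.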 A number with no mark means an inactive call. Not stated in the record: the amount of reagent."}
{"gene knocked down": "Nup154 (GeneID 34527)", "dsRNA": "DRSC26396", "ATP z-score, duplicate mean": -0.714, "ATP luminescence, replicate 1 (RLU)": 9.47e5, "ATP luminescence, replicate 2 (RLU)": 1.09e6}
{"gene knocked down": "CG2003 (GeneID 43761)", "dsRNA": "DRSC15411", "ATP z-score, duplicate mean": 0.893, "ATP luminescence, replicate 1 (RLU)": 6.11e5, "ATP luminescence, replicate 2 (RLU)": 6.64e5}
{"gene knocked down": "CG2003 (GeneID 43761)", "dsRNA": "DRSC39782", "ATP z-score, duplicate mean": 0.651, "ATP luminescence, replicate 1 (RLU)": 4.27e5, "ATP luminescence, replicate 2 (RLU)": 6.29e5}
{"gene knocked down": "Ir8a (GeneID 31867)", "dsRNA": "DRSC17817", "ATP z-score, duplicate mean": 1.18, "ATP luminescence, replicate 1 (RLU)": 6.97e5, "ATP luminescence, replicate 2 (RLU)": 7.72e5}
{"gene knocked down": "Ir8a (GeneID 31867)", "dsRNA": "DRSC17869", "ATP z-score, duplicate mean": -0.723, "ATP luminescence, replicate 1 (RLU)": 6.32e5, "ATP luminescence, replicate 2 (RLU)": 6.98e5}
{"gene knocked down": "bves (GeneID 33083)", "dsRNA": "DRSC20520", "ATP z-score, duplicate mean": -0.12, "ATP luminescence, replicate 1 (RLU)": 7.11e5, "ATP luminescence, replicate 2 (RLU)": 7.49e5}
{"gene knocked down": "bves (GeneID 33083)", "dsRNA": "DRSC20555", "ATP z-score, duplicate mean": -0.491, "ATP luminescence, replicate 1 (RLU)": 6.69e5, "ATP luminescence, replicate 2 (RLU)": 7.11e5}
{"gene knocked down": "Prestin (GeneID 39996)", "dsRNA": "DRSC10507", "ATP z-score, duplicate mean": 0.000146, "ATP luminescence, replicate 1 (RLU)": 9.47e5, "ATP luminescence, replicate 2 (RLU)": 8.47e5}
{"gene knocked down": "ChT (GeneID 42245)", "dsRNA": "DRSC16296", "ATP z-score, duplicate mean": -0.71, "ATP luminescence, replicate 1 (RLU)": 6.34e5, "ATP luminescence, replicate 2 (RLU)": 6.31e5}
{"gene knocked down": "CG9643 (GeneID 33504)", "dsRNA": "DRSC00722", "ATP z-score, duplicate mean": -0.247, "ATP luminescence, replicate 1 (RLU)": 6.50e5, "ATP luminescence, replicate 2 (RLU)": 7.10e5}
{"gene knocked down": "CG9643 (GeneID 33504)", "dsRNA": "DRSC27948", "ATP z-score, duplicate mean": -0.596, "ATP luminescence, replicate 1 (RLU)": 8.92e5, "ATP luminescence, replicate 2 (RLU)": 1.01e6}
{"gene knocked down": "ninaE (GeneID 42367)", "dsRNA": "DRSC17014", "ATP z-score, duplicate mean": 0.0361, "ATP luminescence, replicate 1 (RLU)": 3.25e5, "ATP luminescence, replicate 2 (RLU)": 7.04e5}
{"gene knocked down": "ninaE (GeneID 42367)", "dsRNA": "DRSC25724", "ATP z-score, duplicate mean": 0.491, "ATP luminescence, replicate 1 (RLU)": 8.77e5, "ATP luminescence, replicate 2 (RLU)": 9.46e5}
{"gene knocked down": "Targ (GeneID 36630)", "dsRNA": "DRSC06206", "ATP z-score, duplicate mean": "1.54 (active)", "ATP luminescence, replicate 1 (RLU)": 7.95e5, "ATP luminescence, replicate 2 (RLU)": 7.23e5}
{"gene knocked down": "Gr92a (GeneID 117473)", "dsRNA": "DRSC21631", "ATP z-score, duplicate mean": 0.447, "ATP luminescence, replicate 1 (RLU)": 5.31e5, "ATP luminescence, replicate 2 (RLU)": 7.06e5}
{"gene knocked down": "Gr92a (GeneID 117473)", "dsRNA": "DRSC39582", "ATP z-score, duplicate mean": 0.975, "ATP luminescence, replicate 1 (RLU)": 4.81e5, "ATP luminescence, replicate 2 (RLU)": 5.84e5}
{"gene knocked down": "trp (GeneID 43542)", "dsRNA": "DRSC17088", "ATP z-score, duplicate mean": 0.637, "ATP luminescence, replicate 1 (RLU)": 5.04e5, "ATP luminescence, replicate 2 (RLU)": 7.65e5}
{"gene knocked down": "trp (GeneID 43542)", "dsRNA": "DRSC39559", "ATP z-score, duplicate mean": 0.152, "ATP luminescence, replicate 1 (RLU)": 4.47e5, "ATP luminescence, replicate 2 (RLU)": 5.06e5}
{"gene knocked down": "CG10486 (GeneID 38664)", "dsRNA": "DRSC09735", "ATP z-score, duplicate mean": 0.164, "ATP luminescence, replicate 1 (RLU)": 9.12e5, "ATP luminescence, replicate 2 (RLU)": 9.22e5}
{"gene knocked down": "CG10486 (GeneID 38664)", "dsRNA": "DRSC39429", "ATP z-score, duplicate mean": -1.21, "ATP luminescence, replicate 1 (RLU)": 3.70e5, "ATP luminescence, replicate 2 (RLU)": 3.76e5}
{"gene knocked down": "cni (GeneID 34967)", "dsRNA": "DRSC03512", "ATP z-score, duplicate mean": 0.487, "ATP luminescence, replicate 1 (RLU)": 7.85e5, "ATP luminescence, replicate 2 (RLU)": 7.71e5}
{"gene knocked down": "ort (GeneID 45910)", "dsRNA": "DRSC16240", "ATP z-score, duplicate mean": -0.333, "ATP luminescence, replicate 1 (RLU)": 2.72e5, "ATP luminescence, replicate 2 (RLU)": 7.56e5}
{"gene knocked down": "ort (GeneID 45910)", "dsRNA": "DRSC39620", "ATP z-score, duplicate mean": "-1.65 (active)", "ATP luminescence, replicate 1 (RLU)": 3.44e5, "ATP luminescence, replicate 2 (RLU)": 3.62e5}
{"gene knocked down": "Sfxn1-3 (GeneID 40552)", "dsRNA": "DRSC12183", "ATP z-score, duplicate mean": -0.818, "ATP luminescence, replicate 1 (RLU)": 8.35e5, "ATP luminescence, replicate 2 (RLU)": 7.44e5}
